{"source": "PubChem BioAssay AID1259289 (Sanger Institute, 2017)", "assay": "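Find kinases whose loss adds to targeted drugs in killing bowel cancer cells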 (primary screen)", "system": "human LS513 colorectal cancer cells", "knock-down reagent": "siRNA pool against human genes", "challenge": "anchor drug BYL719 at 1 µM, cetuximab at 5 µg/ml or trametinib at 10 nM, or DMSO vehicle alone; exposure time not given", "measurement": "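Cell survival as a fraction of the non-targeting pool, replicate means; robust z-score for silencing alone under DMSO; synergy score for each of BYL719, cetuximab and trametinib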", "direction": "robust z-score, siRNA alone (DMSO): higher = more viable cells; strongly negative means essential; viability with DMSO vs control: higher = more viable cells", "units": "viability with DMSO vs control in fraction of control", "hit rule": "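a gene counts as active if its DMSO-only robust z-score falls under -3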", "calls": "active = essential (knock-down alone); inactive = not essential", "note": "The deposit covers 794 reagents; shown is a random part of them. Of all reagents, 16 (2%) were called active. 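Active marks cell loss from silencing alone; drug synergy shows only in the synergy scores, not the calls.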 Viability is capped at 1. Further read-outs or replicates are left out here. Not given: the amount of reagent, the time to read-out."}
{"Gene":"ELF3 (E74 like ETS transcription factor 3)","robust z-score, siRNA alone (DMSO)":-0.476,"viability with DMSO vs control":0.853,"Call":"inactive"}
{"Gene":"VRK1 (VRK serine/threonine kinase 1)","robust z-score, siRNA alone (DMSO)":0.561,"viability with DMSO vs control":1,"Call":"inactive"}
{"Gene":"PFKL (phosphofructokinase, liver type)","robust z-score, siRNA alone (DMSO)":0.561,"viability with DMSO vs control":1,"Call":"inactive"}
{"Gene":"DIS3 (DIS3 exosome endoribonuclease and 3'-5' exoribonuclease)","robust z-score, siRNA alone (DMSO)":-1.31,"viability with DMSO vs control":0.734,"Call":"inactive"}
{"Gene":"PRKAR1A","robust z-score, siRNA alone (DMSO)":0.561,"viability with DMSO vs control":1,"Call":"inactive"}
{"Gene":"MAP3K14 (mitogen-activated protein kinase kinase kinase 14)","robust z-score, siRNA alone (DMSO)":0.561,"viability with DMSO vs control":1,"Call":"inactive"}
{"Gene":"XYLB (xylulokinase)","robust z-score, siRNA alone (DMSO)":0.561,"viability with DMSO vs control":1,"Call":"inactive"}
{"Gene":"ETNK2 (ethanolamine kinase 2)","robust z-score, siRNA alone (DMSO)":-1.66,"viability with DMSO vs control":0.685,"Call":"inactive"}
{"Gene":"PRKACG (protein kinase cAMP-activated catalytic subunit gamma)","robust z-score, siRNA alone (DMSO)":-0.774,"viability with DMSO vs control":0.811,"Call":"inactive"}
{"Gene":"PFKFB3 (6-phosphofructo-2-kinase/fructose-2,6-biphosphatase 3)","robust z-score, siRNA alone (DMSO)":-1.23,"viability with DMSO vs control":0.746,"Call":"inactive"}
{"Gene":"PKN2 (protein kinase N2)","robust z-score, siRNA alone (DMSO)":0.561,"viability with DMSO vs control":1,"Call":"inactive"}
{"Gene":"SNRK (SNF related kinase)","robust z-score, siRNA alone (DMSO)":-0.695,"viability with DMSO vs control":0.822,"Call":"inactive"}
{"Gene":"PHKA1 (phosphorylase kinase regulatory subunit alpha 1)","robust z-score, siRNA alone (DMSO)":0.561,"viability with DMSO vs control":1,"Call":"inactive"}
{"Gene":"DLG1 (discs large MAGUK scaffold protein 1)","robust z-score, siRNA alone (DMSO)":0.561,"viability with DMSO vs control":1,"Call":"inactive"}
{"Gene":"TGFBR3 (transforming growth factor beta receptor 3)","robust z-score, siRNA alone (DMSO)":0.561,"viability with DMSO vs control":1,"Call":"inactive"}
{"Gene":"TTBK2 (tau tubulin kinase 2)","robust z-score, siRNA alone (DMSO)":-1.47,"viability with DMSO vs control":0.712,"Call":"inactive"}
{"Gene":"NUP62 (nucleoporin 62)","robust z-score, siRNA alone (DMSO)":0.561,"viability with DMSO vs control":1,"Call":"inactive"}
{"Gene":"PFKFB1 (6-phosphofructo-2-kinase/fructose-2,6-biphosphatase 1)","robust z-score, siRNA alone (DMSO)":-2.89,"viability with DMSO vs control":0.511,"Call":"inactive"}
{"Gene":"PIK3CA","robust z-score, siRNA alone (DMSO)":0.561,"viability with DMSO vs control":1,"Call":"inactive"}
{"Gene":"CHKA (choline kinase alpha)","robust z-score, siRNA alone (DMSO)":-1.94,"viability with DMSO vs control":0.645,"Call":"inactive"}
{"Gene":"RTN4 (reticulon 4)","robust z-score, siRNA alone (DMSO)":0.561,"viability with DMSO vs control":1,"Call":"inactive"}
{"Gene":"PRKCD (protein kinase C delta)","robust z-score, siRNA alone (DMSO)":-1.24,"viability with DMSO vs control":0.744,"Call":"inactive"}
{"Gene":"LRRK2 (leucine rich repeat kinase 2)","robust z-score, siRNA alone (DMSO)":0.561,"viability with DMSO vs control":1,"Call":"inactive"}
{"Gene":"EFNB3 (ephrin B3)","robust z-score, siRNA alone (DMSO)":-1.15,"viability with DMSO vs control":0.757,"Call":"inactive"}
{"Gene":"EPHA7 (EPH receptor A7)","robust z-score, siRNA alone (DMSO)":0.561,"viability with DMSO vs control":1,"Call":"inactive"}
{"Gene":"POLR2B (RNA polymerase II subunit B)","robust z-score, siRNA alone (DMSO)":-1.36,"viability with DMSO vs control":0.727,"Call":"inactive"}
{"Gene":"TRPM6","robust z-score, siRNA alone (DMSO)":0.561,"viability with DMSO vs control":1,"Call":"inactive"}
{"Gene":"PIK3CG","robust z-score, siRNA alone (DMSO)":0.561,"viability with DMSO vs control":1,"Call":"inactive"}
